Laboratory results taken from patent publication US20240368286A1.
These are yes or no findings as the source states them, for the method shown. A result given as binding can be weak or reduced; the word gives no strength.

Molecular target: Cynomolgus monkey GFRAL protein (Biacore analyte) (cynomolgus monkey)
Assay: Biacore SPR

| Binder | binding |
| --- | --- |
| 26D7H3aL2c (antibody, V domains shown) VH: QVQLVQSGAEVKKPGASVKISCKVSGYTFTDYGMNWVRQTPGQGLKWVGWINTYTGEPTYADDFKDRFTFTLDASTSTAYMELRSLRSDDTAVYFCARRYGYDAGIDAWGQGTLVTVSS VL: EIVLTQSPGTLSLSPGERATLSCRASESVESYGNNLMHWYQQKPGQAPRLLIYLASYLESGVPDRFSGSGSGTDFTLTISRLEPEDFATYYCQQNNESPWTFGQGTKVEIK | binds |
| 26D7H5bL5a (antibody, V domains shown) VH: QVQLVQSGAEVKKPGASVKVSCKVSGYTFTDYGMNWVRQAPGQGLEWMGWINTYTGEPTYAQKLQGRVTFTTDTSTSTAYMELRSLRSDDTAVYYCARRYGYDAGIDAWGQGTTVTVSS VL: DIQMTQSPSSLSASVGDRVTITCRASESVESYGNNLMHWYQQKPGKAPKLLIYLASYLESGVPSRFSGSGSGTDFTLTISSLQPEDFATYYCQQNNESPWTFGGGTKLEIK | binds |
